Among the data in PMC3012696, “Crystal Structure of UBA2^ufd-Ubc9: Insights into E1-E2 Interactions in Sumo Pathways” (PLoS ONE, 2010) are binding values, retold here.

These are yes or no findings as the source states them, for the method shown. Some entries that bind do so weakly or less than the wild type. Sequences can lack the tags named with a protein.

The experiment concerns the target T1, Aos1 (subunit of the yeast Sumo E1), as GST fusion (yeast) (UniProt Q06624).
T1 sequence: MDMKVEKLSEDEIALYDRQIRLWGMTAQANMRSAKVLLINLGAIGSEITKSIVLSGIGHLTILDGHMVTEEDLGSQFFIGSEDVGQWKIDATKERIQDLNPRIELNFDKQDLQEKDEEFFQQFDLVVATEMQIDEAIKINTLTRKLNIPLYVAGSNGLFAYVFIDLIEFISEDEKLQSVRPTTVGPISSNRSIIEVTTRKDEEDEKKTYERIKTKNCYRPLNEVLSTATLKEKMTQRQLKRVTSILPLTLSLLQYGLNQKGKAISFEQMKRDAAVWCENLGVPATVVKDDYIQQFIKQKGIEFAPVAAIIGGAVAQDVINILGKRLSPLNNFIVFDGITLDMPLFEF
Nature of the experiment: co-purification (glutathione affinity, anion exchange); Aos1 and Uba2 expressed in E. coli from the Sumo E1 construct; GST-Aos1-Uba2 on glutathione affinity, cleaved with thrombin at 4°C, Aos1-Uba2 further purified by anion exchange.

B1: Uba2 (subunit of the yeast Sumo E1) (enzyme, UniProt P52488 1-636)
chain: MPRETSLVTIIGEDSYKKLRSSRCLLVGAGGIGSELLKDIILMEFGEIHIVDLDTIDLSNLNRQFLFRQKDIKQPKSTTAVKAVQHFNNSKLVPYQGNVMDISTFPLHWFEQFDIIFNALDNLAARRYVNKISQFLSLPLIESGTAGFDGYMQPIIPGKTECFECTKKETPKTFPVCTIRSTPSQPIHCIVWAKNFLFNQLFASETSGNEDDNNQDWGTDDAEEIKRIKQETNELYELQKIIISRDASRIPEILNKLFIQDINKLLAIENLWKTRTKPVPLSDSQINTPTKTAQSASNSVGTIQEQISNFINITQKLMDRYPKEQNHIEFDKDDADTLEFVATAANIRSHIFNIPMKSVFDIKQIAGNIIPAIATTNAIVAGASSLISLRVLNLLKYAPTTKYTDLNMAFTAKASNLSQNRYLSNPKLAPPNKNCPVCSKVCRGVIKLSSDCLNKMKLSDFVVLIREKYSYPQDISLLDASNQRLLFDYDFEDLNDRTLSEINLGNGSIILFSDEEGDTMIRKAIELFLDVDDELPCNTCSLPDVEVPLIKANNSPSKNEEEEKNEKGADVVATTNSHGKDGIVILDDDEGEITIDAEPINGSKKRPVDTEISEAPSNKRTKLVNEPTNSDIVELD
On to B1, for which the binding entry is reported as “binds”.
